Measurements from paper PMC7961652.
These are yes or no findings as the source states them, for the method shown. In cells and extracts the contact can be indirect. Some binding calls cover weakened binding; strength is not graded here.

By UniProt entry, the sequences of proteins in these tests, tags left out.
UniProt P48436: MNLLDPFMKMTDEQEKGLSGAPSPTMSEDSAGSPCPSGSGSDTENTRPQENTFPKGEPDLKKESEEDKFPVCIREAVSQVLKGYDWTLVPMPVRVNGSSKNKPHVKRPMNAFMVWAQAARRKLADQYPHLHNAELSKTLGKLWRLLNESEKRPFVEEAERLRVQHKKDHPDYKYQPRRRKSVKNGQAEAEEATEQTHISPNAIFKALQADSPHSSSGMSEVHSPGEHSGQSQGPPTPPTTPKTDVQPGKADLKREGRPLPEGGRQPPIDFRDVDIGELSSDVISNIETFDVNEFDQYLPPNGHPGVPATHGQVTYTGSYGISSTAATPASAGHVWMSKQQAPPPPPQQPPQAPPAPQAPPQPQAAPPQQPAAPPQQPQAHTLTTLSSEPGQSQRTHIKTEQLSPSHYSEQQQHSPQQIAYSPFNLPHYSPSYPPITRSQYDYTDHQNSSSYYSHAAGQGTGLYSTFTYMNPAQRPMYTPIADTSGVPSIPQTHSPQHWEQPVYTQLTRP

Biological target: SOX9 (human (endogenous in HepG2)) (UniProt P48436)
Assay: co-IP; lysates of HepG2 cells transduced with Ad-GFP or Ad-ARMCX3 (48 h) incubated 2 h with anti-SOX9 antibody or rabbit IgG isotype control on Protein A magnetic beads, eluted with Laemmli buffer, blotted with anti-ARMCX3

B1: ARMCX3 (murine transgene Armcx3) (protein, UniProt Q8BHS6 1-379)
chain: MGYARKVGWVTAGLVIGAGACYCIYRLTRGRKQNKEKMAEGGSGDVDDAGDCSGARYNDWSDDDDDSNESKSIVWYPPWARIGTEAGTRARARARARATRARRAVQKRASPNSDDTVLSPQELQKVLCLVEMSEKPYILEAALIALGNNAAYAFNRDIIRDLGGLPIVAKILNTRDPIVKEKALIVLNNLSVNAENQRRLKVYMNQVCDDTVTSRLNSSVQLAGLRLLTNMTVTNEYQHILANSISDFFRLFSAGNEETKLQVLKLLLNLAENPAMTRELLRAQVPSSLGSLFNKKEYKEVILKLLIIFENINDNFKWEENEPAQNHFSEGSLFFFLKEFQVCADKVLGIESRHDFQVRVKVGKFVAKLTERMFPKSQE
**Q.** How did the binding turn out when B1 was run?
**A.** binds
